# Results taken from PubChem BioAssay AID504834 (National Center for Advancing Translational Sciences (NCATS), 2011).
# Screen size: about 320,000 compounds; about 22,000 (6.9%) were called active. The inconclusive results got no clear call from the source; some entries with a clear call stand among them for comparison. The call rests on the fitted dose curve; in most records, active means well fitted inhibition curve with a large enough effect; inconclusive means small, poorly fitted or top-dose-only effect, or another doubt; inactive means no such curve, though single readings can be large or run the other way. A potency beside an inconclusive call is a rough fit, not a confirmed value.
# Assay: Primary qHTS for delayed death inhibitors of the malarial parasite plastid, 96 hour incubation
# Details: P. falciparum luciferase reporter growth; series mostly up to 28.7 µM; activity change, negative = inhibition: at the top concentration
# Method in brief: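 Two-generation exposure (96 h) targets delayed-death phenotype. Reporter parasites carrying integrated firefly luciferase, in red cells at 2% hematocrit and 0.05% parasitemia final, kept at 37 C, 5% CO2; luminescence loss indicates inhibition.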
# On the % scale 0 is the no-effect control and ±100 the full control effect; potency means the concentration at half of the fitted maximal effect.
SMILES,"activity change, negative = inhibition",Potency
O=C(N/N=C/c1cc2c(cc1Br)OCO2)c1cccnc1,inactive: -18.7%,
CN1/C(=C\C(=O)COC(=O)c2ccc(O)cc2)C(C)(C)c2ccccc21,,"inconclusive: 18.5 µM [inhibitor, single point]"
O=C(O)[C@H]1CCC(=O)N1Cc1ccco1,inactive: 42%,
CCN1C(=O)CC(NC2CCN(C(=O)c3ccc(F)cc3)CC2)C1=O (stereo not drawn),,"inconclusive: 10.4 µM [inhibitor, partial curve]"
CCc1ccc2c(c1)C1(NN=C(c3ccc(C)cc3)S1)C(=O)N2 (stereo not drawn),,"inconclusive: 18.5 µM [inhibitor, single point]"
CCOc1ccc(NC(=O)c2ccccc2NS(=O)(=O)c2ccc(F)cc2)c([N+](=O)[O-])c1,,"inconclusive: 14.7 µM [inhibitor, partial curve, poor fit]"
COc1ccc(Nc2nc(N3CCCC3)nc(N3CCCC3)n2)c(OC)c1,inactive: 38%,
O=C(CCNC(=O)c1ccco1)NCCN1C(=O)S/C(=C\c2ccc(F)cc2)C1=O,inactive: -2.29%,
FC(F)(F)c1cc(Nc2ccccc2)nc(-c2ccccn2)n1,,"inconclusive: 1.65 µM [inhibitor, full curve, poor fit]"
COc1cc(NC(=O)C2=C(C)OCCS2)c(Cl)cc1C(=O)NCCN1CCN(C)CC1,,"inconclusive: 18.5 µM [inhibitor, single point]"
CCc1cccc(NC(=O)Cn2c(=O)c3cccn3c3ccccc32)c1,inactive: 0.57%,
Cc1cc(=O)[nH]c(SCC(=O)N2CCCCC2)n1,,"inconclusive: 18.5 µM [inhibitor, single point]"
CCCN1C2=C(C(=O)CCC2)C(c2ccc(O)c(Br)c2)C2=C1CCCC2=O,,"inconclusive: 0.233 µM [inhibitor, partial curve, poor fit]"
COc1ccc(-n2c(C)cc(/C=C3/SC(=S)N(C)C3=O)c2C)cc1,,active: 0.329 µM
COc1ccccc1CNC(=O)c1ccc(C)s1,,active: 6.57 µM
O=C(CSc1nc2ccccc2c(=O)n1-c1ccc(F)cc1)Nc1ccc(Cl)c(S(=O)(=O)N2CCOCC2)c1,,active: 5.86 µM
c1ccc(CC2CCCCN2)cc1 (stereo not drawn),,"inconclusive: 11.7 µM [inhibitor, single point]"
O=S(=O)(O)CCS,inactive: -18.5%,
Cc1ccc(/C=N/NC(=O)c2nnn(-c3nonc3N)c2CN(C)C)s1,,"inconclusive: 5.22 µM [inhibitor, partial curve, poor fit]"
CC1CCN(C(=O)C(=O)Nc2sc3c(c2C(=O)O)CC(C)(C)OC3)CC1,,"inconclusive: 10.4 µM [inhibitor, single point]"
COC(=O)c1nc(NC(=O)c2ccc(Cl)cc2)n[nH]1,,"inconclusive: 9.28 µM [inhibitor, partial curve]"
CCOc1ccc(N(CC(=O)NCCc2ccc(C)cc2)S(=O)(=O)c2c(C)noc2C)cc1,,"inconclusive: 18.5 µM [inhibitor, single point]"

# Ordered by number of heavy atoms (rising): some entries from above
SMILES,"activity change, negative = inhibition",Potency
O=S(=O)(O)CCS,inactive: -18.5%,
c1ccc(CC2CCCCN2)cc1 (stereo not drawn),,"inconclusive: 11.7 µM [inhibitor, single point]"
COc1ccccc1CNC(=O)c1ccc(C)s1,,active: 6.57 µM
O=C(N/N=C/c1cc2c(cc1Br)OCO2)c1cccnc1,inactive: -18.7%,
FC(F)(F)c1cc(Nc2ccccc2)nc(-c2ccccn2)n1,,"inconclusive: 1.65 µM [inhibitor, full curve, poor fit]"
COc1ccc(-n2c(C)cc(/C=C3/SC(=S)N(C)C3=O)c2C)cc1,,active: 0.329 µM
CCN1C(=O)CC(NC2CCN(C(=O)c3ccc(F)cc3)CC2)C1=O (stereo not drawn),,"inconclusive: 10.4 µM [inhibitor, partial curve]"
CC1CCN(C(=O)C(=O)Nc2sc3c(c2C(=O)O)CC(C)(C)OC3)CC1,,"inconclusive: 10.4 µM [inhibitor, single point]"
CCCN1C2=C(C(=O)CCC2)C(c2ccc(O)c(Br)c2)C2=C1CCCC2=O,,"inconclusive: 0.233 µM [inhibitor, partial curve, poor fit]"
O=C(CCNC(=O)c1ccco1)NCCN1C(=O)S/C(=C\c2ccc(F)cc2)C1=O,inactive: -2.29%,
CCOc1ccc(NC(=O)c2ccccc2NS(=O)(=O)c2ccc(F)cc2)c([N+](=O)[O-])c1,,"inconclusive: 14.7 µM [inhibitor, partial curve, poor fit]"
CCOc1ccc(N(CC(=O)NCCc2ccc(C)cc2)S(=O)(=O)c2c(C)noc2C)cc1,,"inconclusive: 18.5 µM [inhibitor, single point]"

# (list continues)

SMILES,"activity change, negative = inhibition",Potency
O=C1c2cccc(OCc3ccc(F)cc3)c2CCN1Cc1ccccc1,,"inconclusive: 11.7 µM [inhibitor, partial curve, poor fit]"
CC(C)OC(=O)c1ccc(N2CCN(c3ccccc3F)CC2)nc1,,"inconclusive: 18.5 µM [inhibitor, single point]"
Cc1cc(C)c2c(c1)C(=O)/C(=C/c1ccc(C(=O)O)cc1)CC2,,"inconclusive: 18.5 µM [inhibitor, single point]"
O=c1oc(-c2cccc(C(F)(F)F)c2)nn1-c1ccc(C(F)(F)F)cn1,,"inconclusive: 11.7 µM [inhibitor, single point]"
COc1ccc(C2C(C(N)=O)=C(C)Nc3nc(-c4ccccc4)nn32)cc1OC (stereo not drawn),,"inconclusive: 20.8 µM [inhibitor, partial curve, poor fit]"
COc1cc(NC(=O)CSc2nc3cc(C)ccc3cc2C)c(C(=O)O)cc1OC,,active: 9.28 µM
O=C(c1ccc2c(c1)OCO2)N1CCc2ccccc21,,"inconclusive: 4.15 µM [inhibitor, partial curve, poor fit]"
O=C(Nc1ccc(Cl)cc1N1CCOCC1)C1CC1,,"inconclusive: 18.5 µM [inhibitor, single point]"
O=C(NNc1nc2ccccc2s1)c1ccc(F)cc1,,"inconclusive: 14.7 µM [inhibitor, single point]"
O=C(COc1cccc(NC(=O)c2ccco2)c1)c1ccccc1,,"inconclusive: 18.5 µM [inhibitor, partial curve, poor fit]"
CCN1CCN(C(=O)c2ccc(CN(c3ccc(C)c(C)c3)S(C)(=O)=O)cc2)CC1,,active: 10.4 µM
Cc1ccc(C23CC4CC(CC(CC(=O)NC(C)(C)CO)(C4)C2)C3)cc1,,"inconclusive: 11.7 µM [inhibitor, partial curve, poor fit]"
O=C(Nc1ccccc1)N1CCN(c2ccc(F)cc2)CC1,,"inconclusive: 10.4 µM [inhibitor, single point]"
Cc1nn(-c2ccc(F)cc2)c(-n2cccc2)c1C(=O)N1CCN(C(=O)c2ccco2)CC1,,"inconclusive: 10.4 µM [inhibitor, single point]"
CC(C)N1CCCC(CNC(=O)CCc2nnc(CCCCc3ccccc3)o2)C1 (stereo not drawn),,"inconclusive: 18.5 µM [inhibitor, single point]"
CN1CCN(c2ccccc2NC(=O)COc2ccc(Br)cc2)CC1,,active: 1.85 µM
C=CCc1ccc(OCc2ccc(C(=O)O)o2)c(OC)c1,inactive: -1.71%,
CCc1c(C)sc(NC(=O)c2cc(C3CC3)on2)c1C#N,,"inconclusive: 3.7 µM [inhibitor, full curve, poor fit]"
Cc1ccc(S(=O)(=O)Nc2ccc(C(OC(=O)c3ccccc3[N+](=O)[O-])(C(F)(F)F)C(F)(F)F)cc2)cc1,,"inconclusive: 11.7 µM [inhibitor, partial curve]"
CCCCCCN(C(=O)CCCCCN1C(=O)NC(c2ccc(-c3ccccc3)cc2)C(C(=O)OCc2ccccc2)=C1C)C(C(=O)NCCCC)c1ccc(O)c(C(=O)OC)c1 (stereo not drawn),,active: 2.08 µM
COc1ccc(C(=O)NNC(=S)NC(=O)/C=C/c2cccs2)cc1,inactive: 30.8%,
